Library screen at single concentrations

The chains behind the UniProt entries cited, without tags or fusion partners.
UniProt P9WPC5, whole entry: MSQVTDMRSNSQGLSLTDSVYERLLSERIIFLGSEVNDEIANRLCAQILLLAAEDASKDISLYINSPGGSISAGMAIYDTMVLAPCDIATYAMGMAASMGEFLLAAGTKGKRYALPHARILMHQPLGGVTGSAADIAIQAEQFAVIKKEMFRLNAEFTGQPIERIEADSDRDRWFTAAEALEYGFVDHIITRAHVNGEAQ
UniProt P9WPC3, whole entry partner: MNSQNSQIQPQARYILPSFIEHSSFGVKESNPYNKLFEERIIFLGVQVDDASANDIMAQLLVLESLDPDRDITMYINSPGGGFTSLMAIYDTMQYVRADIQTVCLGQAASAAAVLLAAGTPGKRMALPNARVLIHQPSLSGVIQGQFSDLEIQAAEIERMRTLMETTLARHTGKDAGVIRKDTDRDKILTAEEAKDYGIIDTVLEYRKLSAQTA
UniProt P9WNZ1, whole entry: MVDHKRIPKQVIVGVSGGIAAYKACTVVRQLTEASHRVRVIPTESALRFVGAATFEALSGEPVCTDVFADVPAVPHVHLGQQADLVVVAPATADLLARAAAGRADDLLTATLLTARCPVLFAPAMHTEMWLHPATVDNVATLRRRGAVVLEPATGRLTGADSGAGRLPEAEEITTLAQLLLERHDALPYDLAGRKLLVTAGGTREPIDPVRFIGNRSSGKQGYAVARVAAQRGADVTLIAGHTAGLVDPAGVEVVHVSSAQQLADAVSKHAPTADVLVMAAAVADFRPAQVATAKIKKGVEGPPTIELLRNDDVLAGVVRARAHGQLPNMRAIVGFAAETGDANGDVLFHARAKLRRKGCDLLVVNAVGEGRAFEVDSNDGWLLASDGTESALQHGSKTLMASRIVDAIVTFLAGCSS

Measurements from “University of Dundee, Small-Polar-MMV Screening Library” (2021), ChEMBL document CHEMBL3988442.

Each number is a percent effect as filed. The record does not define 0% and 100%; most values in the screen are far below 50% and negative numbers occur (in some assays of this library far below -100). The compounds are a random part of those screened. A dash means the value is not listed here; it may have been measured.

Toxoplasma: 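Assay of Toxoplasma gondii numbers, read through their beta-galactosidase reporter with a colour substrate. Compounds at 10 µM. The record gives no direction; the compounds picked for IC50 retests had high values, so higher reads as fewer parasites. About 67,000 compounds were tested under these conditions; 0.38% (about 260) showed 50% or more at least once.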
ClpP1P2: 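Protease assay of ClpP1P2, read by the AMC dye that it sets free. Target: ClpP1P2, Mycobacterium tuberculosis (UniProt P9WPC5 and UniProt P9WPC3). Tested at 50 µM. Higher reads as stronger inhibition, judged from the few compounds that gave an IC50. Most other retested compounds had strongly negative values. Size under these conditions: about 69,000 compounds, about 10 of them at 50% or above in at least one test.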
T. brucei: 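Whole-parasite assay of Trypanosoma brucei over 72 hours; the read-out is not stated. Compounds at 30 µM. The record gives no direction; compounds that gave an IC50 in retests scored well above the rest, so higher reads as stronger inhibition. Values scatter widely below zero; nearly all retest evidence comes from the higher of the two concentrations used. About 64,000 compounds were tested under these conditions; 1.5% (about 940) showed 50% or more at least once.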
CoaBC: 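Coenzyme A biosynthesis protein CoaBC, Mycobacterium tuberculosis (UniProt P9WNZ1). Enzyme assay of CoaBC with a phosphate dye (Biomol Green) read at 650 nm. Tested at 30 µM. Direction is inferred from only a few compounds that gave an IC50; most scored high, so higher reads as stronger inhibition. Most strong results did not repeat in a second test. Of about 67,000 compounds tested this way, about 40 (0.06%) reached 50% or more in at least one test.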

compound,Toxoplasma,ClpP1P2,T. brucei,CoaBC
CN(Cc1c(F)cccc1Cl)C(=O)c1cnn(CCN2CCCCC2)c1,-5.639%,-19.52%,-47.39%,4.703%
Cc1cnc(C(=O)N2CCC3(CC2)CC(c2ccncc2)C(=O)N3)cn1 (stereo not drawn),2.085%,-17.68%,-7.061%,5.863%
[H][C@]12CC[C@@]3(N=C(C)N(CC)C3=O)[C@@]1([H])CN(S(=O)(=O)CC(C)C)C2,-2.821%,-,-21.76%,-
O=C(Cn1nc2c(cc1=O)CSCC2)NC(Cc1ccccc1)C(=O)O (stereo not drawn),0.5977%,4.173%,2.272%,-0.1346%
COCCNC(=O)Cn1c(-c2ccc(F)cc2)nc(C)c(CCO)c1=O,-0.7415%,9.277%,-37.27%,-5.811%
Cc1ccc(Cn2cc(C)c(N)n2)cc1,13.35%,7.088%,-13.1%,-6.012%
Cc1nc(NCCc2ccccc2)cc(C(=O)N2CCOCC2)n1,23.41%,-14.89%,-,4.478%
Cc1nn(C)cc1-c1ccnc(N(C)Cc2ccon2)n1,-,-15.72%,-17.56%,3.567%
N#Cc1cccc(CN2Cc3nccn3CC(CN3CCCC3)C2)c1 (stereo not drawn),-,-0.9573%,-,-11.79%
CN1CCC(C)(CNC(=O)c2ccc(SCc3cccnc3)cc2)CC1,6.829%,8.19%,15.19%,-1.651%
COCCC(=O)N1C[C@@H](c2cccc(OC)c2)[C@@]2(CCCCC(=O)N2)C1,0.4225%,-6.864%,-0.8126%,2.577%
Cc1cccc2c1NC(c1cnc(C3CCC3)s1)NC2=O (stereo not drawn),9.05%,-12.09%,-27.11%,5.471%
CNC(=O)CN1CCOCC2(CN(CCC(F)(F)F)CCO2)C1.O=C(O)C(F)(F)F.O=C(O)C(F)(F)F (stereo not drawn),3.739%,-,-17.6%,-
NC(=O)CC1CCCCN1C(=O)Cc1cccc(Br)c1 (stereo not drawn),2.941%,-1.093%,0.9072%,-6.876%
CC(c1cccc(Cl)c1)N1CCN(S(C)(=O)=O)CC1 (stereo not drawn),13.27%,4.948%,-43.18%,-
COc1ccc(-c2nnc(SC(C)C(=O)NC3CCCC3)[nH]2)c(OC)c1 (stereo not drawn),40.81%,9.272%,-61.62%,3.719%
O=C(NCC(=O)N1CCc2ccccc2C1)c1cnccn1,2.227%,-8.727%,-,2.301%
Cn1cc(C2CCCN2C(=O)c2cnc(-c3cccs3)s2)cn1 (stereo not drawn),30.13%,-4.467%,-49.44%,0%
O=C(c1cc2ccccc2s1)N1CCC(C(=O)O)(n2cccn2)CC1,4.125%,-10.29%,-53.99%,3.297%
COCCOc1ccc(-c2noc([C@@H]3CCCN3C3CCC3)n2)cn1,8.176%,-15.79%,-4.686%,19.21%
CCn1cc(-c2n[nH]c(=O)n2-c2ccc(OC)c(OC)c2)c(C)n1,-12.11%,-5.777%,-9.151%,4.713%
Cc1nn(C)c2c(N3CCN(C(=O)NC4CCCCC4)CC3)ncnc12,-2.391%,13.13%,-7.368%,13.86%
O=C(NC1CC1)N1CC[C@H]2[C@H]1CCN2c1ncccn1,-,-0.8481%,-,2.703%
O=C(O)C(F)(F)F.O=C(O)C(F)(F)F.[H][C@]12CCC[C@@]1(COc1ccccn1)CN(c1ncc(F)cn1)C2,-4.184%,-,83.95%,-
CCN1CC2(CCC1=O)CCN(Cc1cccc(C#N)c1)CC2,2.741%,-13.95%,18.48%,0.8464%
O=C(O)[C@H]1CCCN1CCOc1cccc(Cl)c1,-2.582%,-4.87%,-15.69%,-1.449%
O=C(O)C(F)(F)F.[H][C@@]12COC[C@]1(COCc1cccnc1)CN(C(=O)c1occc1C)C2,-11.96%,-,-65.15%,-
CC(C)c1ncc2c(n1)CN(CCCc1nc3ccccc3o1)CC2,-22.44%,-39.03%,30.64%,7.5%
Cc1ccc(C(=O)N(C)CCCc2cnn(C)c2)cc1N1CCNC1=O,-23.85%,-8.428%,-6.127%,5.949%
COc1ccc2nc(NC(=O)c3c(C(=O)O)cnn3C)sc2c1,-10.46%,-14.67%,-4.312%,5.34%
CS(=O)(=O)N1CCCC(Cc2ccnc(Nc3ccccn3)c2)C1 (stereo not drawn),0.4003%,-3.904%,0.2627%,4.731%
O=C(NC(Cc1ccsc1)c1nccs1)C1CCOCC1 (stereo not drawn),-5.189%,0.5597%,14.83%,-8.611%
CC(C)n1nnnc1-c1ccc(NC(=O)CCC(F)(F)F)cc1F,-5.699%,-14.99%,-4.744%,17.19%
Cc1ccc2c(c1)SCC(=O)N2CC(=O)N1CCCC1c1cc(C)on1 (stereo not drawn),-1.387%,-9.716%,-21.69%,2.386%